These are yes or no findings as the source states them, for the method shown. Binding seen in cells or lysates may run through a third protein. Some binding calls cover weakened binding; strength is not graded here. Tags and fused reporters may be left off the sequences shown.

Sequences of proteins named here, by UniProt entry; tags and fusion partners are left off.
UniProt P15873: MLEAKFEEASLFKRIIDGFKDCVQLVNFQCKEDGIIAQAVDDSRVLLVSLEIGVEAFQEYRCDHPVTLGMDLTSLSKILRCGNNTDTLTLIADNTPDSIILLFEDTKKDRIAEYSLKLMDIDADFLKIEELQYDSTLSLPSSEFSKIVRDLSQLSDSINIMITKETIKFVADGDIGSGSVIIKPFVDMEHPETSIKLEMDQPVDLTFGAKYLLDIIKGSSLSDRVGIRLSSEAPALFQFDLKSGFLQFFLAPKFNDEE

In assay [1] the target is T1, HA-tagged Pol31 (pol31-HA) (S. cerevisiae) (UniProt P46957).
T1 sequence: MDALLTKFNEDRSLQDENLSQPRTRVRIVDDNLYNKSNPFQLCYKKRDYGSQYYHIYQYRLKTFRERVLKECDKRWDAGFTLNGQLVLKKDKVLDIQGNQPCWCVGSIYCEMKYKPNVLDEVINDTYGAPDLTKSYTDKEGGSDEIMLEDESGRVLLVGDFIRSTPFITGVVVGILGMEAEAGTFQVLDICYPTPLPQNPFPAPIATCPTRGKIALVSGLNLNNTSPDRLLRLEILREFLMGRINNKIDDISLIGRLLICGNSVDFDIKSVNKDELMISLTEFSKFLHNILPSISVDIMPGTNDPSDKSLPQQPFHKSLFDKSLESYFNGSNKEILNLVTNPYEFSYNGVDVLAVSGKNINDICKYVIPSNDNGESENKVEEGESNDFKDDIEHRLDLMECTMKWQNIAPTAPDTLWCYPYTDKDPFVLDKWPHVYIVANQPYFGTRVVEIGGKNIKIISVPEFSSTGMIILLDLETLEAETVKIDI
In words: co-IP; triply-tagged strains with POL3-MYC (wild-type POL3 background); mid-log cells; HA-tagged Pol31 immunoprecipitated with anti-HA antibodies; Western blot with anti-Myc for Pol3 and Rev3 (Figure 6A). Background: A western blot detects proteins with antibodies after separation by electrophoresis.

In assay [2] the target is T2, HA-tagged Pol31-K358E (pol31-K358E-HA) (S. cerevisiae) (UniProt P46957).
T2 sequence: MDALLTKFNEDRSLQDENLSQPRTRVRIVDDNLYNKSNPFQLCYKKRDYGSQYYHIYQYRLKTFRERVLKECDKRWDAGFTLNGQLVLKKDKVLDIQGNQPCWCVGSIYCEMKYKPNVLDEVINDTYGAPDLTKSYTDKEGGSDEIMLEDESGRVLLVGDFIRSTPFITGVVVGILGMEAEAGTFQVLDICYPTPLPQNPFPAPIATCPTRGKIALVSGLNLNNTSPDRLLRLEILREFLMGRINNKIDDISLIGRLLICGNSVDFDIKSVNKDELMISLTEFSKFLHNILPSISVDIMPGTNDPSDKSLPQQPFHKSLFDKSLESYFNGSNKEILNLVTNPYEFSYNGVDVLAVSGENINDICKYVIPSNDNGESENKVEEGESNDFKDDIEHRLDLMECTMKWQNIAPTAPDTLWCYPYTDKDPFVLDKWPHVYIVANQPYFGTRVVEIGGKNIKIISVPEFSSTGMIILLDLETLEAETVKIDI
The description is as above.

Assay [3] addresses FLAG-tagged PCNA (Pol30; POL30-FLAG) (S. cerevisiae) (UniProt P15873). In words: co-IP; FLAG-tagged PCNA (Pol30) immunoprecipitated with anti-FLAG antibodies from yeast extract; Western blot with anti-Myc (Figure 3A).
In assay [4] the target is T1, HA-tagged Pol31 (pol31-HA) (S. cerevisiae). In words: co-IP; triply-tagged strains with pol3-01-MYC (pol3-01 background); mid-log cells; HA-tagged Pol31 immunoprecipitated with anti-HA antibodies; Western blot with anti-Myc for Pol3-01 and Rev3 (Figure 6A).
Assay [5] deals with T2, HA-tagged Pol31-K358E (pol31-K358E-HA) (S. cerevisiae). The assay is described as above.

B1: Myc-tagged Pol3 (POL3-MYC) (protein, UniProt P15436 1-1097)
chain: MSEKRSLPMVDVKIDDEDTPQLEKKIKRQSIDHGVGSEPVSTIEIIPSDSFRKYNSQGFKAKDTDLMGTQLESTFEQELSQMEHDMADQEEHDLSSFERKKLPTDFDPSLYDISFQQIDAEQSVLNGIKDENTSTVVRFFGVTSEGHSVLCNVTGFKNYLYVPAPNSSDANDQEQINKFVHYLNETFDHAIDSIEVVSKQSIWGYSGDTKLPFWKIYVTYPHMVNKLRTAFERGHLSFNSWFSNGTTTYDNIAYTLRLMVDCGIVGMSWITLPKGKYSMIEPNNRVSSCQLEVSINYRNLIAHPAEGDWSHTAPLRIMSFDIECAGRIGVFPEPEYDPVIQIANVVSIAGAKKPFIRNVFTLNTCSPITGSMIFSHATEEEMLSNWRNFIIKVDPDVIIGYNTTNFDIPYLLNRAKALKVNDFPYFGRLKTVKQEIKESVFSSKAYGTRETKNVNIDGRLQLDLLQFIQREYKLRSYTLNAVSAHFLGEQKEDVHYSIISDLQNGDSETRRRLAVYCLKDAYLPLRLMEKLMALVNYTEMARVTGVPFSYLLARGQQIKVVSQLFRKCLEIDTVIPNMQSQASDDQYEGATVIEPIRGYYDVPIATLDFNSLYPSIMMAHNLCYTTLCNKATVERLNLKIDEDYVITPNGDYFVTTKRRRGILPIILDELISARKRAKKDLRDEKDPFKRDVLNGRQLALKISANSVYGFTGATVGKLPCLAISSSVTAYGRTMILKTKTAVQEKYCIKNGYKHDAVVVYGDTDSVMVKFGTTDLKEAMDLGTEAAKYVSTLFKHPINLEFEKAYFPYLLINKKRYAGLFWTNPDKFDKLDQKGLASVRRDSCSLVSIVMNKVLKKILIERNVDGALAFVRETINDILHNRVDISKLIISKTLAPNYTNPQPHAVLAERMKRREGVGPNVGDRVDYVIIGGNDKLYNRAEDPLFVLENNIQVDSRYYLTNQLQNPIISIVAPIIGDKQANGMFVVKSIKINTGSQKGGLMSFIKKVEACKSCKGPLRKGEGPLCSNCLARSGELYIKALYDVRDLEEKYSRLWTQCQRCAGNLHSEVLCSNKNCDIFYMRVKVKKELQEKVEQLSKW
For B1, the binding entry in assay [1] and in assay [2] was “binds” in each case.

B2: FLAG-tagged Pol3-01 (Pol3-01-Flag) of the co-IP of Figure 2C (natural protein, S. cerevisiae, UniProt P15436 1-1097, looked up)
chain: MSEKRSLPMVDVKIDDEDTPQLEKKIKRQSIDHGVGSEPVSTIEIIPSDSFRKYNSQGFKAKDTDLMGTQLESTFEQELSQMEHDMADQEEHDLSSFERKKLPTDFDPSLYDISFQQIDAEQSVLNGIKDENTSTVVRFFGVTSEGHSVLCNVTGFKNYLYVPAPNSSDANDQEQINKFVHYLNETFDHAIDSIEVVSKQSIWGYSGDTKLPFWKIYVTYPHMVNKLRTAFERGHLSFNSWFSNGTTTYDNIAYTLRLMVDCGIVGMSWITLPKGKYSMIEPNNRVSSCQLEVSINYRNLIAHPAEGDWSHTAPLRIMSFAIACAGRIGVFPEPEYDPVIQIANVVSIAGAKKPFIRNVFTLNTCSPITGSMIFSHATEEEMLSNWRNFIIKVDPDVIIGYNTTNFDIPYLLNRAKALKVNDFPYFGRLKTVKQEIKESVFSSKAYGTRETKNVNIDGRLQLDLLQFIQREYKLRSYTLNAVSAHFLGEQKEDVHYSIISDLQNGDSETRRRLAVYCLKDAYLPLRLMEKLMALVNYTEMARVTGVPFSYLLARGQQIKVVSQLFRKCLEIDTVIPNMQSQASDDQYEGATVIEPIRGYYDVPIATLDFNSLYPSIMMAHNLCYTTLCNKATVERLNLKIDEDYVITPNGDYFVTTKRRRGILPIILDELISARKRAKKDLRDEKDPFKRDVLNGRQLALKISANSVYGFTGATVGKLPCLAISSSVTAYGRTMILKTKTAVQEKYCIKNGYKHDAVVVYGDTDSVMVKFGTTDLKEAMDLGTEAAKYVSTLFKHPINLEFEKAYFPYLLINKKRYAGLFWTNPDKFDKLDQKGLASVRRDSCSLVSIVMNKVLKKILIERNVDGALAFVRETINDILHNRVDISKLIISKTLAPNYTNPQPHAVLAERMKRREGVGPNVGDRVDYVIIGGNDKLYNRAEDPLFVLENNIQVDSRYYLTNQLQNPIISIVAPIIGDKQANGMFVVKSIKINTGSQKGGLMSFIKKVEACKSCKGPLRKGEGPLCSNCLARSGELYIKALYDVRDLEEKYSRLWTQCQRCAGNLHSEVLCSNKNCDIFYMRVKVKKELQEKVEQLSKW
notes: Pol3, catalytic subunit of DNA polymerase delta, S. cerevisiae, pol3-01 allele (D321A, E323A); the tags may be swapped in the text; source: S. cerevisiae, in lysate
Regarding B2, the binding result in assay [3] is given as “binds weakly”; in assay [4], “binds weakly”; in assay [5] it was “binds”.

The record behind these values is article PMC9957047, “A Role for the Interactions between Polδ and PCNA Revealed by Analysis of pol3-01 Yeast Mutants” (Genes, 2023).
